# Assay results

From PubChem BioAssay record AID504749 (NCATS, 2011).

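A panel of P. falciparum strains inside erythrocytes is exposed to compounds for three days, then a DNA-binding dye reports the amount of parasite DNA. Each compound was titrated across a series from about 0.000037 to 29 µM. The number is the fitted AC50, the concentration giving a half-maximal change in signal; a lower value means higher potency, whether the curve shows a decrease or an increase. Calls follow the curve class and fit quality: every row here is inconclusive, covering signal-raising curves and weak, poorly fitted, partial or highest-dose-only inhibition curves.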

Values are in µM. All entries here are filed as inconclusive. These entries are mostly ones the record files as inconclusive; other results of the assay are not listed here. A potency from a partial, single-point or poor curve is only a rough figure. Some entries filed as inconclusive have a full curve.

{"structure": "CCC1(c2ccccc2)C(=O)NC(=O)N(C)C1=O", "stereo": "stereo not given", "condition": "ECU", "fitted potency (µM)": "17.78", "curve as filed": "inhibitor, single point"}
{"structure": "CCC1(c2ccccc2)C(=O)NC(=O)N(C)C1=O", "stereo": "stereo not given", "condition": "TAB113", "fitted potency (µM)": "17.78", "curve as filed": "inhibitor, single point"}
{"structure": "CCC1(c2ccccc2)C(=O)NC(=O)N(C)C1=O", "stereo": "stereo not given", "condition": "PC15", "fitted potency (µM)": "10", "curve as filed": "inhibitor, single point"}
{"structure": "CCC1(c2ccccc2)C(=O)NC(=O)N(C)C1=O", "stereo": "stereo not given", "condition": "ATS189", "fitted potency (µM)": "10", "curve as filed": "inhibitor, single point"}
{"structure": "OC(c1ccccc1)(c1ccccc1)C1CN2CCC1CC2", "stereo": "stereo not given", "condition": "ICS", "fitted potency (µM)": "3.162", "curve as filed": "inhibitor, full curve"}
{"structure": "OC(c1ccccc1)(c1ccccc1)C1CN2CCC1CC2", "stereo": "stereo not given", "condition": "PC15", "fitted potency (µM)": "1", "curve as filed": "inhibitor, full curve"}
{"structure": "OC(c1ccccc1)(c1ccccc1)C1CN2CCC1CC2", "stereo": "stereo not given", "condition": "Dd2", "fitted potency (µM)": "11.22", "curve as filed": "inhibitor, partial curve"}
{"structure": "OC(c1ccccc1)(c1ccccc1)C1CN2CCC1CC2", "stereo": "stereo not given", "condition": "PC26", "fitted potency (µM)": "1.346", "curve as filed": "inhibitor, full curve"}
{"structure": "OC(c1ccccc1)(c1ccccc1)C1CN2CCC1CC2", "stereo": "stereo not given", "condition": "CP247", "fitted potency (µM)": "1.585", "curve as filed": "inhibitor, partial curve, poor fit"}
{"structure": "OC(c1ccccc1)(c1ccccc1)C1CN2CCC1CC2", "stereo": "stereo not given", "condition": "DIV30", "fitted potency (µM)": "8.492", "curve as filed": "inhibitor, partial curve"}
{"structure": "OC(c1ccccc1)(c1ccccc1)C1CN2CCC1CC2", "stereo": "stereo not given", "condition": "DIV14", "fitted potency (µM)": "1.901", "curve as filed": "inhibitor, full curve"}
{"structure": "OC(c1ccccc1)(c1ccccc1)C1CN2CCC1CC2", "stereo": "stereo not given", "condition": "CP297", "fitted potency (µM)": "0.6012", "curve as filed": "inhibitor, full curve, poor fit"}
{"structure": "OC(c1ccccc1)(c1ccccc1)C1CN2CCC1CC2", "stereo": "stereo not given", "condition": "CP237", "fitted potency (µM)": "11.22", "curve as filed": "inhibitor, partial curve"}
{"structure": "OC(c1ccccc1)(c1ccccc1)C1CN2CCC1CC2", "stereo": "stereo not given", "condition": "CP260", "fitted potency (µM)": "6.31", "curve as filed": "inhibitor, partial curve"}
{"structure": "OC(c1ccccc1)(c1ccccc1)C1CN2CCC1CC2", "stereo": "stereo not given", "condition": "CP191", "fitted potency (µM)": "10", "curve as filed": "inhibitor, single point"}
{"structure": "OC(c1ccccc1)(c1ccccc1)C1CN2CCC1CC2", "stereo": "stereo not given", "condition": "GB4", "fitted potency (µM)": "4.256", "curve as filed": "inhibitor, partial curve, poor fit"}
{"structure": "OC(c1ccccc1)(c1ccccc1)C1CN2CCC1CC2", "stereo": "stereo not given", "condition": "CP215", "fitted potency (µM)": "21.33", "curve as filed": "inhibitor, partial curve, poor fit"}
{"structure": "OC(c1ccccc1)(c1ccccc1)C1CN2CCC1CC2", "stereo": "stereo not given", "condition": "CP266", "fitted potency (µM)": "0.0012", "curve as filed": "inhibitor, full curve, poor fit"}
{"structure": "OC(c1ccccc1)(c1ccccc1)C1CN2CCC1CC2", "stereo": "stereo not given", "condition": "PAD", "fitted potency (µM)": "10", "curve as filed": "inhibitor, single point"}
{"structure": "OC(c1ccccc1)(c1ccccc1)C1CN2CCC1CC2", "stereo": "stereo not given", "condition": "ECU", "fitted potency (µM)": "0.5012", "curve as filed": "inhibitor, full curve, poor fit"}
{"structure": "OC(c1ccccc1)(c1ccccc1)C1CN2CCC1CC2", "stereo": "stereo not given", "condition": "CP335", "fitted potency (µM)": "16.94", "curve as filed": "inhibitor, partial curve, poor fit"}
{"structure": "O=[N+]([O-])c1ccc(O)c2ncccc12", "condition": "P94_40", "fitted potency (µM)": "10", "curve as filed": "inhibitor, single point"}
{"structure": "O=[N+]([O-])c1ccc(O)c2ncccc12", "condition": "CP217", "fitted potency (µM)": "10", "curve as filed": "inhibitor, single point"}
{"structure": "O=[N+]([O-])c1ccc(O)c2ncccc12", "condition": "TAB109", "fitted potency (µM)": "14.13", "curve as filed": "inhibitor, single point"}
{"structure": "O=[N+]([O-])c1ccc(O)c2ncccc12", "condition": "DIV14", "fitted potency (µM)": "19.01", "curve as filed": "inhibitor, single point"}
{"structure": "O=[N+]([O-])c1ccc(O)c2ncccc12", "condition": "CP269", "fitted potency (µM)": "19.01", "curve as filed": "inhibitor, single point"}
{"structure": "O=[N+]([O-])c1ccc(O)c2ncccc12", "condition": "DIV30", "fitted potency (µM)": "19.01", "curve as filed": "inhibitor, single point"}
{"structure": "O=[N+]([O-])c1ccc(O)c2ncccc12", "condition": "CP201", "fitted potency (µM)": "21.33", "curve as filed": "inhibitor, partial curve, poor fit"}
{"structure": "O=[N+]([O-])c1ccc(O)c2ncccc12", "condition": "CP315", "fitted potency (µM)": "19.01", "curve as filed": "inhibitor, single point"}

Once more, the final 3:

structure,condition,fitted potency (µM),curve as filed
O=[N+]([O-])c1ccc(O)c2ncccc12,DIV30,19.01,"inhibitor, single point"
O=[N+]([O-])c1ccc(O)c2ncccc12,CP201,21.33,"inhibitor, partial curve, poor fit"
O=[N+]([O-])c1ccc(O)c2ncccc12,CP315,19.01,"inhibitor, single point"